Source: paper PMC10163745
Results are given in words; binding and its absence hold for the method and conditions named. Binding seen in cells or lysates may run through a third protein.

Chains of the proteins cited; added tags and fusions are not shown.
UniProt Q01995: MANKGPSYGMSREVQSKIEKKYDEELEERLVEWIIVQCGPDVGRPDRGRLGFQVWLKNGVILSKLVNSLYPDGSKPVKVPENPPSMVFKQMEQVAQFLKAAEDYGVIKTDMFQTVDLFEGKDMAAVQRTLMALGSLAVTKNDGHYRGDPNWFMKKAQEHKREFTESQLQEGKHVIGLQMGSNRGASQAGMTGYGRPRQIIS

Target: T1, zinc finger E-box binding homeobox 1 (ZEB1) (human (endogenous in HSFs)) (UniProt P37275)
T1 sequence: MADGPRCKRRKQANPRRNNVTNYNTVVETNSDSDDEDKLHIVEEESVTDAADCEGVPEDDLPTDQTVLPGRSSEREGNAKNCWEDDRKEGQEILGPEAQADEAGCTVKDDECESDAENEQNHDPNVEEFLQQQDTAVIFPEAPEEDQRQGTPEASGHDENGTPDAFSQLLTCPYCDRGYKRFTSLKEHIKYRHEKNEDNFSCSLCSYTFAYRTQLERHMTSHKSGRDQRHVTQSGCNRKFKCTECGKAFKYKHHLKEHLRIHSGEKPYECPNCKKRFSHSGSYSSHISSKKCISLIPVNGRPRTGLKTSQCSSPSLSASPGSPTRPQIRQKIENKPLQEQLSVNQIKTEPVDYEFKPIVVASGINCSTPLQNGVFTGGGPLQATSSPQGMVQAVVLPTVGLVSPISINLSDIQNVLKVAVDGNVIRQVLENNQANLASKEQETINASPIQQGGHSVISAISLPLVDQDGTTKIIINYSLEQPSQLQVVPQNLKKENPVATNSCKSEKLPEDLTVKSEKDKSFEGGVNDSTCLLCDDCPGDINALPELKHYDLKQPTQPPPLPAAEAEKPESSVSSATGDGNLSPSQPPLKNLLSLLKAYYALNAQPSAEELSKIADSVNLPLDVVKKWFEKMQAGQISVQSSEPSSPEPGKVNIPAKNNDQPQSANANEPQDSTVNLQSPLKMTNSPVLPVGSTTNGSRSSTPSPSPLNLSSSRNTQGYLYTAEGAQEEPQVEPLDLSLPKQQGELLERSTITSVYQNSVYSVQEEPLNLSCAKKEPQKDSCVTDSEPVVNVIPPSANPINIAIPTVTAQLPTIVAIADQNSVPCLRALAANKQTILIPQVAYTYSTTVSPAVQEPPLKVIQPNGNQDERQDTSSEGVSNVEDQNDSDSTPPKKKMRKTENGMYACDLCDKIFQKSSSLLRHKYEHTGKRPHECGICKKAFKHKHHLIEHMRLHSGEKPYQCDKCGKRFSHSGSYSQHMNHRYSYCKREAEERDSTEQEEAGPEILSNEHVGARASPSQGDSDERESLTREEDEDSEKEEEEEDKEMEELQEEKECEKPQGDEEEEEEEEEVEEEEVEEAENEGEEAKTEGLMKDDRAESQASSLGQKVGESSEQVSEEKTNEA
Assay: co-IP; whole-cell lysates from HSFs immunoprecipitated and immunoblotted with antibodies against the indicated proteins (endogenous)

transgelin (TAGLN) (from UniProt Q01995 1-201)
binding: no binding
